According to article PMC5157023:
No constants are given. Whether binding was seen depends on the method and setting. Binding seen in cells or lysates may run through a third protein. These calls come from enrichment with a bait or labelling near it, and not all partners need be listed. Tags and fused reporters may be left off the sequences shown.

The chains behind the UniProt entries cited, without tags or fusion partners. Where a name states a change or a piece, a line headed by the entry shows the natural chain unless it says otherwise.
UniProt Q13263: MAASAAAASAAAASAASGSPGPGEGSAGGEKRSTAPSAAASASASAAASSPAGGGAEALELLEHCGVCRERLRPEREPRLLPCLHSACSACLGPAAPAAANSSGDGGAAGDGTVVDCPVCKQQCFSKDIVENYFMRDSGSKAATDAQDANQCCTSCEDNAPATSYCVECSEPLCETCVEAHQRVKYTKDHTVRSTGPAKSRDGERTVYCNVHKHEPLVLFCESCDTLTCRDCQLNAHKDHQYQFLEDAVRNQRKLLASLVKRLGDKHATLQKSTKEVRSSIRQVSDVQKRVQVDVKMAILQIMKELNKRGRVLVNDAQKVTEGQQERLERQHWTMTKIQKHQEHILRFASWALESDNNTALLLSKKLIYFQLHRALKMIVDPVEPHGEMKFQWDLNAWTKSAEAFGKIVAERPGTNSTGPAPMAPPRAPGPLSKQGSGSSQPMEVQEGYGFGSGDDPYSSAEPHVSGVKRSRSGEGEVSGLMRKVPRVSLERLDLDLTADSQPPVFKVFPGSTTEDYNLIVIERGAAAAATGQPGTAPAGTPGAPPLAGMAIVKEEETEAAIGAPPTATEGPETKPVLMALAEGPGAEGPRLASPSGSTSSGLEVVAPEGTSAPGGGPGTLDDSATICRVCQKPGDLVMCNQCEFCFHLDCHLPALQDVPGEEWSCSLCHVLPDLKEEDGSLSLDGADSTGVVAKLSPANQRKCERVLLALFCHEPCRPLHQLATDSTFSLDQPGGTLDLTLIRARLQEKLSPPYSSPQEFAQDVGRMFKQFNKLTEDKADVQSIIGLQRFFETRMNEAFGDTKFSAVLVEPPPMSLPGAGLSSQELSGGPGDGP
UniProt P17096: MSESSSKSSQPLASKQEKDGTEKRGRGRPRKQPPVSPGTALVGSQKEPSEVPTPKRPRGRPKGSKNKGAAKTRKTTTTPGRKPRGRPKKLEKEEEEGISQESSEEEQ
UniProt P06748: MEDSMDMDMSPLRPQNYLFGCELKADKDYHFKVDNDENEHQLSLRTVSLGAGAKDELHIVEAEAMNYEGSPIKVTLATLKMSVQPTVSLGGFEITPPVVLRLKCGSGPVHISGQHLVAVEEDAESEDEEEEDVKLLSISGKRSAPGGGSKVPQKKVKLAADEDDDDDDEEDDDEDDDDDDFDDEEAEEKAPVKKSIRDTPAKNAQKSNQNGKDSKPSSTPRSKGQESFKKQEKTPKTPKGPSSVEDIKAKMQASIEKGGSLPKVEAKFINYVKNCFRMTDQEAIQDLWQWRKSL
UniProt O75367: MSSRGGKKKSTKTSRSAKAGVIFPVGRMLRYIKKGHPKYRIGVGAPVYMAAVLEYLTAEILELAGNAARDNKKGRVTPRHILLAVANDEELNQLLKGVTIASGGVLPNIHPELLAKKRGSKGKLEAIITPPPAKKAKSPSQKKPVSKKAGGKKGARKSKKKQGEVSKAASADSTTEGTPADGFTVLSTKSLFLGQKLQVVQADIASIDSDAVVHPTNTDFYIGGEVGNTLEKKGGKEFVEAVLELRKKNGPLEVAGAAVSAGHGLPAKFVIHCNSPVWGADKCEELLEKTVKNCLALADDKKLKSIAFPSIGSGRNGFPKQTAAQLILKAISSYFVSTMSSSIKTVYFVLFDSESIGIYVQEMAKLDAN
UniProt O60506: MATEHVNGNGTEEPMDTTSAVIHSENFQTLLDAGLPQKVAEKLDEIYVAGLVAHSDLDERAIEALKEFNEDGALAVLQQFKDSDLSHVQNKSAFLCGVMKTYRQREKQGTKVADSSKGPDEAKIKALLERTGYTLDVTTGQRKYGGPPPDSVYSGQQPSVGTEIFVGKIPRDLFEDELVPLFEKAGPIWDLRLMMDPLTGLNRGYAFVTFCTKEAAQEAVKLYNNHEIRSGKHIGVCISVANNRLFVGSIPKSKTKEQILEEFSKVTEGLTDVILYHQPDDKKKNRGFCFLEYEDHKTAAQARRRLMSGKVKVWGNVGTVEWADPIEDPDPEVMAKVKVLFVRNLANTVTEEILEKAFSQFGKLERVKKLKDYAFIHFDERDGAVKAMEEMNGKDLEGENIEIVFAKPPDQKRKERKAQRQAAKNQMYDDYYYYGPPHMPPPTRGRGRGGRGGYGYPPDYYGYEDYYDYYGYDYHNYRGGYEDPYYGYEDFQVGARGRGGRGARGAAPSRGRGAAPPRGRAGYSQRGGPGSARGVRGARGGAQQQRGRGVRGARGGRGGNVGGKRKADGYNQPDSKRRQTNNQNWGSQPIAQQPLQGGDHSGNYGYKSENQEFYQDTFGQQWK
UniProt P09874: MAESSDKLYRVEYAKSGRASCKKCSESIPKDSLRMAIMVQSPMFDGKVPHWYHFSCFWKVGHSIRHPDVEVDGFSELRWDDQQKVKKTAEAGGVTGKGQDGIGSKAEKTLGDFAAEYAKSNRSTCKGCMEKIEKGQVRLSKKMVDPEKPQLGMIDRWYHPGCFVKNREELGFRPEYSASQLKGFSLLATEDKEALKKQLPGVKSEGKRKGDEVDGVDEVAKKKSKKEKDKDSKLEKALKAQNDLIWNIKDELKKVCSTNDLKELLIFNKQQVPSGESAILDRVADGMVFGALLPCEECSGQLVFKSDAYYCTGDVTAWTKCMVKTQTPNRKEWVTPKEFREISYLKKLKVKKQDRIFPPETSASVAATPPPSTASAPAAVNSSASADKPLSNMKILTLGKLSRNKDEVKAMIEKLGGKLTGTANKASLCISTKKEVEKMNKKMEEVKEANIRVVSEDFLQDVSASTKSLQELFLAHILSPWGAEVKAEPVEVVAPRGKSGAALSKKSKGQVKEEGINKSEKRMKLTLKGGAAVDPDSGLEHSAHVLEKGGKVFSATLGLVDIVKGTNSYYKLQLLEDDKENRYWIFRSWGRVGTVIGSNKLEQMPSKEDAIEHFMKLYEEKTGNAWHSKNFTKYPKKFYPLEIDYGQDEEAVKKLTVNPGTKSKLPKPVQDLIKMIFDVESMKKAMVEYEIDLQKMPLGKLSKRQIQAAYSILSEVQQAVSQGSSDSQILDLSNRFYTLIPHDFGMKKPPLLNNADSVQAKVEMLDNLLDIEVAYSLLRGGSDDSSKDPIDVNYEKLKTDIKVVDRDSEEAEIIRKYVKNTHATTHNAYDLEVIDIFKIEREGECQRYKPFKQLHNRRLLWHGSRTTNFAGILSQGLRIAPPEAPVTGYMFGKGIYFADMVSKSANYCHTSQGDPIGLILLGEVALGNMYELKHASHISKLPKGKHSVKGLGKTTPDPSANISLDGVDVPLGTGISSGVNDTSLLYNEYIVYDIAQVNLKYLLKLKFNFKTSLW

Target: V5-tagged RE-1 silencing transcription factor (REST) (UniProt Q13127)
Experiment: affinity purification with mass spectrometry; V5-tagged REST from transfected HEK293FT cells immunoisolated with anti-V5 antibody on agarose beads; lysis buffer 50 mM Tris-HCl pH 7.4, 150 mM NaCl, 5 mM EDTA, 0.2% TritonX-100, 15 U/ml DNAse I; in-solution digestion, triplicate LC-MS/MS, label-free quantification against control vector

Substance	binding
histone deacetylase 5 (HDAC5) (from UniProt Q9UQL6 1-1122)	binds
Tripartite motif-containing 28 (TRIM28) (from UniProt Q13263 1-835)	binds
high mobility group protein HMG-I/HMG-Y (HMGA1) (from UniProt P17096 1-107)	binds
nucleophosmin1 (NPM1) (from UniProt P06748 1-294)	binds
core histone macro-H2A.1 (H2AFY) (from UniProt O75367 1-369)	binds

Continued, values first:

binding	Substance
binds	HnRNP Q (from UniProt O60506 1-623)
binds	poly[ADP-ribose]polymerase1 (PARP1) (from UniProt P09874 1-1014)
